This note sets out measurements from publication PMC11078946.

The chains behind the UniProt entries cited, without tags or fusion partners.
UniProt Q86VP6: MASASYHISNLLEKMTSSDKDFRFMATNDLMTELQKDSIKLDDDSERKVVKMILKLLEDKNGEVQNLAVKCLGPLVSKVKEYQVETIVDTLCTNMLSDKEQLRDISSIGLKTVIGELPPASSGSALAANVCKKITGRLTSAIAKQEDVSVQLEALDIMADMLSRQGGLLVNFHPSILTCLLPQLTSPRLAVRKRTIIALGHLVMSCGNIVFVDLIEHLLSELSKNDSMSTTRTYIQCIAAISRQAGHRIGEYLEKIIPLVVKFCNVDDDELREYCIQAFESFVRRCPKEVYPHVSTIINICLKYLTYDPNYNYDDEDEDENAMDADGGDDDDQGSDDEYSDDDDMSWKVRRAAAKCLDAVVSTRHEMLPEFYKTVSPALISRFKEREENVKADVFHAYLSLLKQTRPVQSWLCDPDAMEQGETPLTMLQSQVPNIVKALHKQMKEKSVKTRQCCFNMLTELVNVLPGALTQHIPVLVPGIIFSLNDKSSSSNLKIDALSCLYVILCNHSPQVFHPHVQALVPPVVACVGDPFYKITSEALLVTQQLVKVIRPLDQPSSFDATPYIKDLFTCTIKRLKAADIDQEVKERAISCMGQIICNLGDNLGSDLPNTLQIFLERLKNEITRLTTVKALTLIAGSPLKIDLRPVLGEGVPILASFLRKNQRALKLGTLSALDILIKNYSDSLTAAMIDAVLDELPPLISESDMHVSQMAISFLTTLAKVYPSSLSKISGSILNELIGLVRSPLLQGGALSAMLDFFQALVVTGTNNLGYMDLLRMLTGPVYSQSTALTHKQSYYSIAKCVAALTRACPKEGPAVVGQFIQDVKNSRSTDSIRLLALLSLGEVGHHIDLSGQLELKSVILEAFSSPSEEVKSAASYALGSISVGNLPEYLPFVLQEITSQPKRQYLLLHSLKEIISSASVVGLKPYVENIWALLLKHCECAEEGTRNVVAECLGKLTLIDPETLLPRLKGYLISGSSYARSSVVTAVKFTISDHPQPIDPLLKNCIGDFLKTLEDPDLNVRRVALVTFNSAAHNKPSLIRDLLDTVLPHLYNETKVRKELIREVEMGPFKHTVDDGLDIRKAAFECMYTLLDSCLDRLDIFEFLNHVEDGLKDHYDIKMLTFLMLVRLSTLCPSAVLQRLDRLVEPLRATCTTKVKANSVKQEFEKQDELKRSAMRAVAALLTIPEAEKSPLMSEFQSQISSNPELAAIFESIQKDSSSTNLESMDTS

No constants are given. Whether binding was seen depends on the method and setting. Binding seen in cells or lysates may run through a third protein. Some entries that bind do so weakly or less than the wild type.

This assay has as its target GST-OspG L99R/P102E (S. flexneri 2a strain 2457T) (UniProt Q99PZ6). The assay is described as follows: pull-down; glutathione resins coated with purified GST-OspG, its variants or GST alone, incubated with lysates of Flag-CAND1-expressing 293T cells; eluates blotted with anti-Flag and anti-GST; only the target purified.

On to Flag-CAND1 (from UniProt Q86VP6 1-1230), for which the binding result is recorded as “binds”.
